Measurements reported in PubChem BioAssay AID1259424 (University of Nebraska Medical Center, 2018).
Aim: 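Rank knockdowns across the genome by resemblance to the KSR1 depletion profile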 (primary screen). Cells: human HCT116 colon cancer cells. Reagent: siRNA pool against human genes, 50 nM. Measurement: 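Six signature mRNAs by branched-DNA multiplex assay, scaled to two housekeeping genes and non-targeting median, log2; matched to mean KSR1 knockdown profile by Pearson correlation and euclidean distance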. Direction: mean correlation with KSR1 profile: higher = expression change more like KSR1 knockdown.
The deposit covers about 14,000 reagents; this is a part drawn at random. 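Higher correlation or smaller distance means closer resemblance to KSR1 loss; control wells, including KSR1 knockdowns, recur on many plates.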 Not all columns of the deposit are shown. Not stated in the record: the time to read-out.

target | mean correlation with KSR1 profile
PDS5A | 0.192
STOML1 | -0.39
YRDC | 0.628
PLAGL2 | -0.393
OR2W1 | 0.937
IQSEC2 | -0.135
PSPN | -0.124
DDX47 | 0.871
CCDC47 | -0.774
WASF2 | 0.65
TLCD3B | 0.694
ATP5F1A | 0.0817
MED7 | -0.273
ONECUT2 | 0.322
BTN3A2 | 0.393
NDUFC1 | 0.537
PSMB7 | -0.138
PTPRO | -0.039
RPS6KA2 | -0.503
ANKRD40CL | -0.309
ATAD2B | -0.372
MICAL1 | -0.117
CSH2 | 0.419
PRODH2 | -0.281
MRGBP | -0.0947
CRYZ | -0.138
ENO3 | -0.362
BGN | 0.00144
CGB3 | -0.00116
CISD1 | 0.302
UBA6 | -0.69
ING5 | 0.637
CATSPER2 | 0.379
RFK | 0.85
ETFA | -0.612
LMTK2 | 0.217
ORAI1 | 0.787
ZNF528 | 0.841
QKI | -0.0161
ACOT8 | 0.0993
NTN1 | -0.00104
BCL11A | 0.361
OR10J1 | 0.63
ST3GAL5 | 0.252
MZT2B | 0.38
CUL7 | -0.361
SLAMF8 | -0.418
PTENP1 | -0.152
ZFPL1 | 0.262
PLEKHF1 | 0.16

5 entries from above, arranged by “mean correlation with KSR1 profile”, lowest first:
target | mean correlation with KSR1 profile
MED7 | -0.273
ATP5F1A | 0.0817
ONECUT2 | 0.322
BTN3A2 | 0.393
TLCD3B | 0.694
